Data taken from paper PMC11169275, “MAL2 reprograms lipid metabolism in intrahepatic cholangiocarcinoma via EGFR/SREBP-1 pathway based on single-cell RNA sequencing” (Cell Death & Disease, 2024).
No constants are given. Whether binding was seen depends on the method and setting. Binding seen in cells or lysates may run through a third protein. Some results given as binding are weak or reduced against the parent protein; the word gives no strength.

Chains of the proteins cited; added tags and fusions are not shown.
UniProt Q969L2: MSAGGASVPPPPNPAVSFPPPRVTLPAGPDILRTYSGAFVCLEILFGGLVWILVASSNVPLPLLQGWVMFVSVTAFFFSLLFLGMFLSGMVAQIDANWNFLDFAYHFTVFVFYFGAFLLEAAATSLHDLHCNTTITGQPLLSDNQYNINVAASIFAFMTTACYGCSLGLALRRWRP

Biological target: EGFR, flag-tagged (UniProt P00533)
Experiment: co-IP; HEK293T cells transfected with HA-tagged MAL2 and flag-tagged EGFR, 24 h; IP lysis buffer with protease and phosphatase inhibitors; supernatant incubated overnight at 4 °C with protein G agarose beads and specific antibodies; washed three times with buffers of 300 and 150 mM NaCl; immunoblotting

binding: binds
Substance: mal, T cell differentiation protein 2 (MAL2), HA-tagged (from UniProt Q969L2 1-176)
